In patent US20070021391A1, “Preventive/remedy for urinary disturbance” (priority 2003, published 2007):
At least one structure is not confirmed: it was looked up by name or label, or the drawing left a doubt.

Tests used:
male SD rat = assay: Acetylcholine inductive salivation in rat (Example 5); type: in vivo; conditions: rat and guinea pig (Tables 9 and 10)
Method: A male SD rat (CLEA Japan Inc.) with a body weight of about 400 g or a Hartley male guinea pig with a body weight of 400 to 500 g (Japan SLC) were used. After urethane anesthesia, sanitary cotton preliminarily weighed was inserted in the mouth of the animal and acetylcholine was intravenously administrated. After 5 minutes, the sanitary cotton was taken out to be weighed and the amount of saliva secreted was measured. The drug was intravenously administrated at 10 min before the administration of acetylcholine. The effect of oxybutynin was analyzed by paired t calibration and the concomitant use effect of the compound A was analyzed by William calibration.

Acetylcholine esterase = biological target: T1, Acetylcholine esterase (Rattus norvegicus, UniProt P37136); conditions: Literature 6; cited from earlier work
T1 sequence (P37136 32-614): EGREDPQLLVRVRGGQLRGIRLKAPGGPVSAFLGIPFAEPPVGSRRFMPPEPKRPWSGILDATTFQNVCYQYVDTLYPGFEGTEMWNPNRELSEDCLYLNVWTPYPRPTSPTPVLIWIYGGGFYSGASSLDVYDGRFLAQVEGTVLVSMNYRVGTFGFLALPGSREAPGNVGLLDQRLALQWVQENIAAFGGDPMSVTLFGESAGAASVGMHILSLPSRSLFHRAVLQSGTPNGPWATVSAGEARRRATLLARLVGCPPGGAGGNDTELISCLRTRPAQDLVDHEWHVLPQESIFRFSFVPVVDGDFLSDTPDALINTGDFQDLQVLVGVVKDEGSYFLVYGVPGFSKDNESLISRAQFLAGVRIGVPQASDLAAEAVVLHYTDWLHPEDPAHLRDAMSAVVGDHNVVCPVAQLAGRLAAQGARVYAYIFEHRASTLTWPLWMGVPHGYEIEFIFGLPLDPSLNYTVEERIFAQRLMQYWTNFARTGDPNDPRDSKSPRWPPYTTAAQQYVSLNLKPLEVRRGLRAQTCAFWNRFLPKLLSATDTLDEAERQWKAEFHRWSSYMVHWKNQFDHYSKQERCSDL

For CC(=O)OCC[N+](C)(C)C [Acetylcholine], the “action on acetylcholine-induced secretion of saliva” value (male SD rat) was “promotes the secretion of saliva”.
For O=C(CCC1CCN(Cc2ccccc2)CC1)c1ccc2c(c1)NCCCC2 [TAK-147], the “Selectivity (butyrylcholine esterase/acetylcholine esterase)” value (Acetylcholine esterase) is given as 460.
